Screen size: about 1,600 compounds; about 20 (1%) were called active.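 The calls were made as follows: active = ratio of uncleaved NAD to its breakdown product ADP-ribose above 4, meaning the enzyme was inhibited; inactive = the rest.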 This is one part of the list.
These molecules were tested against NAD(+) hydrolase SARM1 (Homo sapiens) (UniProt Q6SZW1) (assay: inhibition of SAM-TIR NAD hydrolysis to ADPR – cell lysate, HPLC readout, primary screen (AID 1508615;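 also: substrate NAD at 5 µM with 60 min at 37 °C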)). Conditions: HEK293T SAM-TIR lysate, NAD/ADPR ratio by HPLC; at 5 µM; stronger effect = higher value.

Protein sequences, listed by entry. Tags and fused reporters are not part of them. Lines headed by an entry give the natural chain unless they say otherwise; changes in a name come on top.
UniProt Q6SZW1: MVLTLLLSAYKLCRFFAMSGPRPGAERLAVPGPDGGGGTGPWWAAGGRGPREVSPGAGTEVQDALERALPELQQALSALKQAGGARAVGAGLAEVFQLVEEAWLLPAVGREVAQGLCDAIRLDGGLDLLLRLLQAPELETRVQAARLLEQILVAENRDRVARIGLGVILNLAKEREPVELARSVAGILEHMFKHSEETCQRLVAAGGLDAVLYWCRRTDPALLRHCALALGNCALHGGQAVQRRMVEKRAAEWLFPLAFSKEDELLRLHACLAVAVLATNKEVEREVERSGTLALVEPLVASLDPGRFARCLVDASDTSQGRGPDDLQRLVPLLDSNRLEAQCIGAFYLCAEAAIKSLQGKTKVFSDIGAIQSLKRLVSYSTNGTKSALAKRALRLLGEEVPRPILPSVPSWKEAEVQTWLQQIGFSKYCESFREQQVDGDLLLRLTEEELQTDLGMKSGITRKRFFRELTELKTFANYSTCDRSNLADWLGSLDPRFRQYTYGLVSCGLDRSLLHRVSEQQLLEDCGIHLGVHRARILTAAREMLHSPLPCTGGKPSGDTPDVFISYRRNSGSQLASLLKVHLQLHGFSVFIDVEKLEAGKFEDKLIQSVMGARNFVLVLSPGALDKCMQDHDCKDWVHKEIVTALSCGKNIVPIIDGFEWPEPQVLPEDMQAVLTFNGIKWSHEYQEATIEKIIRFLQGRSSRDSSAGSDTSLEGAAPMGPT

Structure (SMILES) | NAD/ADPR ratio
CC(=O)OCCn1c([N+](=O)[O-])cnc1/C=[N+](\[O-])C1CCCCC1 | inactive: 3
CCCCCCCCCCC(C(=O)O)C1(C(=O)O)CCC(=O)O1 (stereo not given) | inactive: 3
Cn1ncc2c(Nc3cccc(Cl)c3)nc(Nc3cccc(Cl)c3)nc21 | inactive: 3
CN1N=C(N)c2cn([C@@H]3O[C@H](COP(=O)(O)O)[C@@H](O)[C@H]3O)c3ncnc1c23 | inactive: 3
CC1(C)CC(=O)C(CC(=O)c2ccccc2)=C(NN=C(N)N)C1 | inactive: 3
Cc1ccc(S(=O)c2ccc([N+](=O)[O-])c3nonc23)cc1 (stereo not given) | active: 13.2
O=C(NN1CCCCC1)NN1CCCCC1 | inactive: 3
Cc1cc(C)c2c(SC(C)C)nc(N)nc2n1 | inactive: 3
CC1=C2C3OC(=O)C(C)C3CCC2(C)C=C(Cl)C1=O (stereo not given) | inactive: 3
Cc1c(C(C)(C(=O)O)c2c(C)n(C)c3ccccc23)c2ccccc2n1C | inactive: 3
O=C(O)/C=C/C(=O)Nc1cccc2cccnc12 | inactive: 3
O=C1Cc2cccc(=O)c(O)c2C(=O)O1 | inactive: 3
Cc1ccc(C=C2C(Cl)=C(Cl)C(Cl)=C2Cl)cc1 | inactive: 3
O=C(Nc1ccc(Nc2ccccc2)cc1)Nc1ccccc1Cl | inactive: 3
Cn1cnc([N+](=O)[O-])c1N=C(N)N | inactive: 3
COc1cc(-c2ccc(Nc3ccccc3C(=O)O)c(OC)c2)ccc1Nc1ccccc1C(=O)O | inactive: 3
COC(=O)c1cc(C)[nH]c2c(C)cc3nc4ccccc4c3c12 | inactive: 3
Oc1ccc(NC(=S)Nc2ccccc2)cc1 | inactive: 3
CC(=O)OC1C=CCC2C(=O)c3cccc(O)c3C(O)C12 (stereo not given) | inactive: 3
CC1(CN2CCCC2)CCC(NC(=O)C(c2ccccc2)c2ccccc2)C(C)(C)O1 (stereo not given) | inactive: 3
C#CC(C)OCC1CNC(=S)O1 (stereo not given) | inactive: 3
O=C(O)c1cccc2c1C(=O)c1cccc3snc-2c13 | inactive: 3
O=C(Nc1ccc(Nc2ccncc2)cc1)c1ccc(Nc2ccnc3ccc([N+](=O)[O-])cc23)cc1[N+](=O)[O-] | inactive: 3

Structure (SMILES) | NAD/ADPR ratio
S=c1cn[nH]c2ccccc12 | inactive: 3
CCOC(=O)C(Cc1ccc(O)cc1)Nc1nc2ccccc2o1 (stereo not given) | inactive: 3
Clc1ccccc1-c1nc2ccccc2[nH]1 | inactive: 3
Nc1nc2nn(-c3ccccc3)nc2c(=O)[nH]1 | inactive: 3
COc1cc(N=Nc2cccc(S(N)(=O)=O)c2)c2ccccc2c1N | inactive: 3
CCCCNc1cc(Cl)nc(N)n1 | inactive: 3
CC(OC(=O)Nc1cccc(Cl)c1)C(=O)O (stereo not given) | inactive: 3
CC(=O)Nc1ccc(Cc2nc3c([nH]2)c(=O)n(C)c(=O)n3C)cc1 | inactive: 3
O=C1OC(CN(Cc2ccccc2)Cc2ccccc2)CN1/N=C/c1ccc([N+](=O)[O-])o1 (stereo not given) | inactive: 3
Cc1c(Cl)ccc2c(C(=O)O)cc(-c3ccccc3)nc12 | inactive: 3
CCc1nc(N)nc(N)c1-c1ccc(N(C)Cc2ccccc2)c([N+](=O)[O-])c1 | inactive: 3
CCOC(=O)c1c(C)oc(C)c(C(=O)OCC)c1=O | inactive: 3
C/C(=N/NC(N)=O)c1ccc(Cl)c(-n2cccc2)c1 | inactive: 3
Clc1ccc(-c2n[nH]c3c2Cc2ccccc2-3)cc1Cl | inactive: 3
Nc1c(Cl)ncnc1NCCO | inactive: 3
CC1=CC2(C)NC(=O)C(C)C12 (stereo not given) | inactive: 3
O=C1NC(=O)C(Cc2ccccc2)(c2cccnc2)N1 (stereo not given) | inactive: 3
Nc1ccc(OC(=O)Nc2ccc(O)cc2)cc1 | inactive: 3
O=C1NC(=O)C2(CCc3ccccc32)N1 (stereo not given) | inactive: 3
Cc1ccc2ccc(C#N)cc2c1O | inactive: 3
O=[N+]([O-])c1ccc(-c2ncc(-c3ccc(Br)cc3)o2)cc1 | inactive: 3
CCOC(=O)c1nn(C)c2[nH]c(=O)n(C)c(=O)c12 | inactive: 3
O=C(O)CCN1c2ccccc2Sc2ccccc21 | inactive: 3

Structure (SMILES) | NAD/ADPR ratio
OCc1ncc(-c2ccccc2)s1 | inactive: 3
Cc1nc2c(O)cccc2cc1CO | inactive: 3
CCOC(=O)c1ccc(NC(=O)Oc2cc(C)c(Cl)cc2C(C)C)cc1 | inactive: 3
CC(CCC(=O)O)C1CC[C@@]2(C)C3C(=O)CC4C(C)(C)C(O)CC[C@]4(C)C3C(=O)C[C@]12C (stereo not given in full) | inactive: 3
CSC1=NC=C(C#N)C2=NC(c3ccc(Cl)cc3)NN12 (stereo not given) | inactive: 3
Cn1ncc2c(Nc3ccc(O)cc3)nc(Cl)nc21 | inactive: 3
O=C(NC(=S)Nc1ccccn1)c1ccccc1 | inactive: 3
Cc1ccc(-c2cssc2=S)cc1 | inactive: 3
O=c1[nH]c(=S)c2[nH]c(=S)n(-c3ccccc3)c2[nH]1 | inactive: 3
O=C(c1ccccc1)c1ccc[nH]1 | inactive: 3
Nc1ccc(C(=O)Nc2ccc(NC(=O)c3ccco3)c(O)c2)cc1 | inactive: 3
Cc1ccc(S(=O)(=O)Oc2cc(N)c3c(n2)CCC3)cc1 | inactive: 3
Cc1cc(NC(=O)Nc2cc(F)ccc2F)no1 | inactive: 3
O=C(CN1CCCC1)Nc1nc(-c2ccc(Cl)cc2)cs1 | inactive: 3
COC(=O)c1ccccc1NCCO | inactive: 3
COc1cc2c(cc1OC)C(C1(O)CCCCC1)NCC2 (stereo not given) | inactive: 3
Cc1nn(-c2ccccc2)c2c1C(c1ccc([N+](=O)[O-])cc1)C(C#N)=C(N)O2 (stereo not given) | inactive: 3
O=S(=O)(Oc1ccc(Cl)cc1)c1cccc2cccnc12 | inactive: 3
Nc1ccc(C(=O)c2cccs2)cn1 | inactive: 3
CC(C)=CCC1=C(OCC(=O)O)C(=O)c2ccccc2C1=O | inactive: 3
O=C(Nc1ccc(Oc2ccc(NC(=O)Nc3ccccc3Cl)cc2)cc1)Nc1ccccc1Cl | inactive: 3
COc1cc([N+](=O)[O-])ccc1NC(=O)Oc1ccc(NC(C)=O)cc1 | inactive: 3
CC1(C)N=C(N)N=C(N)N1c1ccc(OCCCOc2ccccc2)c(Cl)c1 | inactive: 3

Structure (SMILES) | NAD/ADPR ratio
O=C(O)CSc1ccc(NC(=O)Nc2ccccc2F)cc1 | inactive: 3
COCC(=O)Oc1cc(-c2ccc(C)cc2C)c(OC(=O)COC)c(-c2ccc(C)cc2C)c1 | inactive: 3
O=C(O)C(Cc1cn[nH]n1)=NO | inactive: 3
Cc1cc(O)cc2c1[C@H]1CC[C@]3(C)C(=O)CC[C@H]3[C@@H]1C=C2 | inactive: 3
CC(C)c1ncc(CO)n1Cc1c(Cl)cccc1Cl | inactive: 3
O=C(O)Cc1ccc(N=Nc2c(O)c(C(=O)O)cc3ccccc23)cc1 | inactive: 3
NS(=O)(=O)c1ccc(NC(=S)NC(=O)c2ccco2)cc1 | inactive: 3
CC(=O)Oc1ccc2cc(-c3ccccc3)c(=O)oc2c1 | inactive: 3
Cn1ncc2c(NCc3ccccc3)ncnc21 | inactive: 3
COc1ccc(NC(=O)N2CCN(C(=O)Nc3ccc(OC)cc3)CC2)cc1 | inactive: 3
S=c1nc[nH]c2c1cnn2-c1ccccc1 | inactive: 3
CC(C)c1ccc2c(c1)CCC1C(C)(CN)CCCC21C (stereo not given) | inactive: 3
c1ccc(N=NN2CCOCC2)cc1 | inactive: 3
Clc1ccccc1/C=C/c1ccnc2ccccc12 | inactive: 3
CCNc1nc(Cl)nc(-c2cn(-c3ccccc3)c3ccccc23)n1 | inactive: 3
CC1=CC(=C2C=CC(=O)C=C2)C=C(C)N1C | inactive: 3
O=C1CC(c2ccc(O)cc2)Oc2cc(O)cc(O)c21 (stereo not given) | inactive: 3
O=C(Nc1cccc(Cl)c1)Nc1nccs1 | inactive: 3
CN(C)c1ccc(/C=C(\C#N)C(=O)c2ccccc2)cc1 | inactive: 3
COc1ccccc1NC(=O)Nc1cc(C(C)C)ccc1C | inactive: 3
Cc1c([N+](=O)[O-])oc2c1C(=O)NCCC2 | inactive: 3
CCC(C)NC(=O)c1cccc(C)c1 (stereo not given) | inactive: 3
CN(c1cccnc1)c1ncnc2[nH]ncc12 | inactive: 3

Structure (SMILES) | NAD/ADPR ratio
Cc1ccc(Nc2nc(Cl)nc3ncn(C)c23)c(C)c1 | inactive: 3
CCN(CC)CCCC(C)Nc1ccnc2cc(C(F)(F)F)ccc12 (stereo not given) | inactive: 3
COc1ccc([N+](=O)[O-])cc1NS(=O)(=O)c1ccc(C)cc1 | inactive: 3
Cc1ccc(Nc2nnc(-c3ccc4c(c3)OCO4)o2)c(C)c1 | inactive: 3
Oc1[nH]c(N=C2N=c3ccccc3=N2)c2ccccc12 | inactive: 3
O=c1[nH]c(=O)n2ncnc2[nH]1 | inactive: 3
O=S(=O)(c1ccc2c(c1)CCCN2)N1CCCC2CCCCC21 (stereo not given) | inactive: 3
CC12CCC(C1)C(C)(C)C2OC(=O)c1ccccc1C(=O)O (stereo not given) | inactive: 3
COc1ccn(C2CCCCO2)c(=O)n1 (stereo not given) | inactive: 3
c1ccc(-c2nc[nH]c2-c2ccccc2)cc1 | inactive: 3
CC1=CC(=O)Nc2cncnc2N1 | inactive: 3
CC(=O)N1C(=O)C2(NCC(C)N2)c2ccccc21 (stereo not given) | inactive: 3
CCS(=O)(=O)C1C(=O)N(C)C(S(=O)(=O)CC)C(=O)N1C (stereo not given) | inactive: 3
Nc1o[nH]c(=O)c1C1CCCCC1 | inactive: 3
COc1cc(CC(=O)C(=O)O)oc(=O)c1 | inactive: 3
CC(=O)OC1CC[C@@]2(C)C(CCC3C2CC(=O)[C@@]2(C)C3CC3CC(C)=CC(=O)C32)C1 (stereo not given in full) | inactive: 3
CCOC(=O)/C=C/c1nc(C(=O)OCC)c(C)c(=O)[nH]1 | inactive: 3
COc1cc(/C=N/Nc2nc3c([nH]2)c(=O)n(C)c(=O)n3C)ccc1O | inactive: 3
CCCn1cnc2c(=S)nc(N)[nH]c21 | inactive: 3
C=CCC(CC)C(=O)NC(=O)N1CCCc2ccccc21 (stereo not given) | inactive: 3
O=[N+]([O-])c1ccc(/C=[N+](\[O-])CCO)o1 | inactive: 3
NC(N)=NC(=S)Nc1ccc(Cl)cc1 | inactive: 3
NC(=S)NC(=O)c1ccccc1 | inactive: 3

Filtered by structure: those above containing fluorine (three)
Structure (SMILES) | NAD/ADPR ratio
Cc1cc(NC(=O)Nc2cc(F)ccc2F)no1 | inactive: 3
O=C(O)CSc1ccc(NC(=O)Nc2ccccc2F)cc1 | inactive: 3
CCN(CC)CCCC(C)Nc1ccnc2cc(C(F)(F)F)ccc12 (stereo not given) | inactive: 3

Part of the list above, in markdown.

| Structure (SMILES) | NAD/ADPR ratio |
| --- | --- |
| C#CC(C)OCC1CNC(=S)O1 (stereo not given) | inactive: 3 |
| O=C(O)c1cccc2c1C(=O)c1cccc3snc-2c13 | inactive: 3 |
| O=C(Nc1ccc(Nc2ccncc2)cc1)c1ccc(Nc2ccnc3ccc([N+](=O)[O-])cc23)cc1[N+](=O)[O-] | inactive: 3 |
| S=c1cn[nH]c2ccccc12 | inactive: 3 |
| CCOC(=O)C(Cc1ccc(O)cc1)Nc1nc2ccccc2o1 (stereo not given) | inactive: 3 |

— PubChem BioAssay AID1508615 (Milbrandt Lab, Department of Genetics, Washington …, 2020)
